Measurements reported in PubChem BioAssay (EPA / NIEHS).
“And” between values parts separate entries of the source, which are not always exact repeats. Identical values can stand only once. This list was built around the results that the source calls inconclusive (neither active nor inactive); the mix of calls is not that of the screen. Where the call is inconclusive, the potency comes from a doubtful curve fit. The source made the active and inactive calls. How the source made its calls: active means hit-call score of the fitted dose curve at least 0.9, where 1 is the maximum; inconclusive means response in the unintended direction; inactive means score below 0.9.

The chains behind the UniProt entries cited, without tags or fusion partners.
UniProt P49884, whole entry, looked up: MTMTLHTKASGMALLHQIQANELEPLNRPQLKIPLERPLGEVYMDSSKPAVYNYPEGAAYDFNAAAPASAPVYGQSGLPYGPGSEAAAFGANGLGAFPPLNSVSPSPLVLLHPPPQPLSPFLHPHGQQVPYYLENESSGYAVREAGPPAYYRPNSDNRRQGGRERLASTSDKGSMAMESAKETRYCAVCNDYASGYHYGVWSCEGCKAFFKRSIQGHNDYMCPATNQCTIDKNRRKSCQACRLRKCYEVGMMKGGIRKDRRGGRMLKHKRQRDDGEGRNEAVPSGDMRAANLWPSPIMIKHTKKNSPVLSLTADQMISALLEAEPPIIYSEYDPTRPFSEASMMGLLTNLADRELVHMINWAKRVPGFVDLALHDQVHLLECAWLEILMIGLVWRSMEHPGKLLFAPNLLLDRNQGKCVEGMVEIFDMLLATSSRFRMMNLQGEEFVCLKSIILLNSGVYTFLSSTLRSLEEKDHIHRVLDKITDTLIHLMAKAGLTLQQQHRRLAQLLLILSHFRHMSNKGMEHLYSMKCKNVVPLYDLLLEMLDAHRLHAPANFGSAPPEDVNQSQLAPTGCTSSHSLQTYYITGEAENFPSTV

What follows are compounds tested against bovine Estrogen Receptor (ER), ESR1 (gene 407238) (UniProt P49884) (assay: NVS_NR_bER: NovaScreen (NVS) Nuclear Receptor Binding Assay for bovine Estrogen Receptor (ER) (AID 2283345);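 further: actives lower the bound radioligand count which means they displace the ER ligand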).
In short: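 Bovine uterine membranes; tritiated or iodinated radioligand; competitive displacement; 18 h; scintillation read; DMSO negative control; 25 uM duplicates, then concentration series for actives.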

Compound	AC50	outcome
CCCN(CCC)N=O	inconclusive: 25 µM	–
CCCCN(CC)C(=O)SCCC	inconclusive: 0.00229 µM	–
COP(=S)(OC)Oc1ccc(SC)c(C)c1	–	inactive
CCC1(c2ccc(N)cc2)CCC(=O)NC1=O (stereo not drawn)	inconclusive: 25 µM	–
CCOP(=S)(OCC)Oc1cnc2ccccc2n1	–	inactive
CCOP(=S)(OCC)SCSP(=S)(OCC)OCC	–	inactive
CCOc1ccc(N)cc1	inconclusive: 25 µM	–
CCC(C)c1cc([N+](=O)[O-])cc([N+](=O)[O-])c1O (stereo not drawn)	inconclusive: 25 µM	–
CCCCCCCCCCCCCCC(Br)C(=O)O (stereo not drawn)	inconclusive: 25 µM	–
CCC(=O)O[C@H]1CC[C@H]2[C@@H]3CCC4=CC(=O)CC[C@]4(C)[C@H]3CC[C@]12C	inconclusive: 33.5 nM and inconclusive: 55 nM	–
COP(=S)(OC)Oc1ccc(S(=O)(=O)N(C)C)cc1	inconclusive: 0.517 µM	–
Cc1ccc(-c2c(Cl)nc(C#N)n2S(=O)(=O)N(C)C)cc1	inconclusive: 25 µM	–
Nc1ccc(Cl)cc1	–	inactive
CCOP(=S)(Oc1ccc([N+](=O)[O-])cc1)c1ccccc1 (stereo not drawn)	–	inactive
CCCCCCCCCc1ccc(O)cc1	inconclusive: 25 µM	–
C[C@]12CCC(=O)C=C1CC[C@@H]1[C@@H]2CC[C@@]2(C)[C@H]1CC[C@]2(C)O	inconclusive: 45.8 nM and inconclusive: 22.9 µM	–
CCC[CH2][Sn]([Cl])([CH2]CCC)[CH2]CCC	inconclusive: 25 µM	–

Compound	AC50	outcome
C[C@]12CCC(=O)C=C1CC[C@@H]1[C@@H]2CC[C@]2(C)C(=O)CC[C@@H]12	inconclusive: 432 nM and inconclusive: 25 µM and active: 25 µM	–
O=P1(N(CCCl)CCCl)NCCCO1 (stereo not drawn)	–	inactive
O=[N+]([O-])c1ccc(Nc2ccccc2)cc1	inconclusive: 0.0645 µM	–
O=C(Nc1ccc2[nH]ccc2c1)c1cc2cc(F)ccc2n1Cc1cccc(F)c1	inconclusive: 25 µM	–
CC(O)(CS(=O)(=O)c1ccc(F)cc1)C(=O)Nc1ccc(C#N)c(C(F)(F)F)c1 (stereo not drawn)	–	inactive
O=[N+]([O-])c1ccccc1	–	inactive
Cc1cc(-c2ccc(N)c(C)c2)ccc1N	active: 48.1 nM and inconclusive: 584 nM	–
COP(=O)(OC)SCn1c(=O)oc2cc(Cl)cnc21	inconclusive: 25 µM	–
C=CC#N	inconclusive: 0.0266 µM	–
CCCCCOC(=O)c1ccccc1C(=O)OCCCCC	–	inactive
O=S1(=O)OC(c2cc(Br)c(O)c(Br)c2)(c2cc(Br)c(O)c(Br)c2)c2ccccc21	inconclusive: 23.2 µM	–
C=CC(=O)NCNC(=O)C=C	inconclusive: 1.33 µM	–
COc1nn(CSP(=S)(OC)OC)c(=O)s1	inconclusive: 25 µM	–
COC(=O)c1sccc1S(=O)(=O)NC(=O)Nc1nc(C)nc(OC)n1	–	inactive
CCOC(=O)CCN(SN(C)C(=O)Oc1cccc2c1OC(C)(C)C2)C(C)C	inconclusive: 25 µM	–
CSc1nc(NC(C)C)nc(NC(C)C)n1	inconclusive: 8.25 µM	–
